# Out of some 360,000 compounds screened, about 7,500 (2.1%) were called active. Inconclusive means that the source gave no clear call. Such entries were picked first, then a sample of the others. Calls follow the shape of the dose curve; as a rule, active = well fitted inhibition curve with a large enough effect; inconclusive = small, poorly fitted or top-dose-only effect, or effect the other way; inactive = flat fitted curve, though single readings scatter. A potency beside an inconclusive call is a rough fit, not a confirmed value.
# Test: Nrf2 qHTS screen for inhibitors; also: nearly all actives have a fitted effect of over 60% in size
# Conditions: A549 ARE-Fluc reporter, luciferase luminescence, 18-24 h; activity change, negative = inhibition: at 46 µM (top of the series)
# Outline: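 A549 ARE_Fluc cells, 5000/well, 5% FBS OPTI-MEM; compounds in dose-response, 18-24 h at 37 °C/5% CO2; CellTiter-Fluor viability read (Ex 405/Em 525), then BugLite luciferase luminescence = Nrf2 activity.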
# % is scaled to controls: 0 for no effect and ±100 for the full control effect; potency is read from the fitted curve at half-maximal effect.
SMILES,Potency,"activity change, negative = inhibition"
O=C(C[n+]1ccccc1)N/N=C/c1cc(Br)cc(Br)c1O,"inconclusive: 6.51 µM [falling, partial curve, poor fit]",–
O=C(Nc1ccc2oc(-c3cccnc3)nc2c1)c1ccccc1F,–,inactive: -4.52%
CCOC(=O)C1(Cc2cccc(OC)c2)CCCN(C(=O)CCN2CCCO2)C1 (centres undefined),"inconclusive: 20.6 µM [activator, partial curve]",–
C/C(=N\NC(=O)c1ccccc1O)c1cccs1,"inconclusive: 23.1 µM [activator, single point]",–
COc1ccc(NS(=O)(=O)c2ccc(N3CCOCC3)c(NC(=O)C(C)C)c2)cc1,"inconclusive: 7.31 µM [falling, partial curve]",–
Cc1ccc2c(c1)[C@H]1[C@H](CO2)[C@H](c2ccccc2)[C@]2(C)C(=O)Nc3cc(F)ccc3C(=O)N12,"inconclusive: 18.4 µM [falling, partial curve]",–
COc1cccc2cc(-c3cn4ccc(C)cc4n3)c(=O)oc12,"inconclusive: 1.64 µM [activator, full curve]",–
CN(C)c1ccc(/C=C(\Cl)c2nc3ccccc3s2)cc1,"inconclusive: 2.91 µM [activator, partial curve]",–
CCC(=O)c1cn(CC(=O)Nc2c(C)cccc2C)c2ccccc12,–,inactive: 5.02%
CCOc1ccc(-c2cc(CCCC(=O)NCCCOC)no2)cc1,"inconclusive: 3.66 µM [falling, full curve]",–
COCCn1c(SCC(=O)Nc2ccccc2OC)nc2c(oc3ccccc32)c1=O,"inconclusive: 25.9 µM [falling, partial curve, poor fit]",–
Cc1cscn1,–,inactive: 11.8%
Cc1cc(C)n2ncc(/C(N)=N/OC(=O)c3ccccc3F)c2n1,"inconclusive: 9.2 µM [activator, partial curve]",–
O=C(Nc1cccnc1)c1ccc(S(=O)(=O)c2ccc(Cl)cc2)cc1,"inconclusive: 23.1 µM [falling, single point]",–
Fc1ccccc1-c1csc(=Nc2cccnc2)n1CC1CCCO1 (centres undefined),–,inactive: -20.6%
COc1cccc2[nH]c3c(N4CCC5(CC4)OCCO5)ncnc3c12,–,inactive: 0.474%
COc1ccccc1CNc1nccn(-c2ccc(F)cc2)c1=O,"inconclusive: 11.6 µM [activator, partial curve]",–
Cc1cc(C(=O)CCl)c(C)n1Cc1ccco1,"inconclusive: 23.1 µM [falling, partial curve, poor fit]",–
CCOC(=O)c1sc2nc(-c3cccnc3)ccc2c1N,"inconclusive: 3.66 µM [activator, full curve]",–
CCN(CC(=O)Nc1c(F)cccc1F)C(=O)c1cccc(S(=O)(=O)N2CCN(c3ccccc3)CC2)c1,"inconclusive: 25.9 µM [falling, partial curve]",–
NC(=O)c1ccc(NC(=O)C#Cc2ccccc2)cc1,active: 4.61 µM,–
CCCn1c2ccccc2c2cnn(CC(=O)NCC3CCN(Cc4ccccc4C)CC3)c(=O)c21,"inconclusive: 29.1 µM [activator, single point]",–

# Reprinted at random: two entries already listed
SMILES,Potency,"activity change, negative = inhibition"
CCC(=O)c1cn(CC(=O)Nc2c(C)cccc2C)c2ccccc12,–,inactive: 5.02%
Cc1cscn1,–,inactive: 11.8%

# Continuation:

SMILES,Potency,"activity change, negative = inhibition"
OC(COCC1CC=CCC1)Cn1cnc2ccccc21 (centres undefined),"inconclusive: 29.1 µM [falling, single point]",–
COc1ccccc1N(C)S(=O)(=O)c1ccc(C(=O)Nc2ccc(C(N)=O)cc2)cc1,"inconclusive: 20.6 µM [falling, single point]",–
CSc1cc2c(s1)c1cnn(Cc3ccccc3F)c(=O)c1n2C,–,inactive: -16.4%
COc1ccc(OCC(=O)Nc2ccc(OC)c(S(=O)(=O)N3CCCCC3)c2)cc1,"inconclusive: 29.1 µM [falling, single point]",–
COc1ccc(C(=O)Nc2nc(-c3ccc(Br)cc3)ns2)cc1,"inconclusive: 29.1 µM [falling, single point]",–
O=S(=O)(c1ccc2ccccc2c1)N1CCC(c2nc(-c3ccncc3)no2)CC1,active: 4.11 µM,–
C/C(=N/NC(=O)c1cccc(N2CCCC2=O)c1)c1ccncc1,"inconclusive: 18.4 µM [activator, partial curve, poor fit]",–
CC12C=CC(=O)C=C1CCC1C2CCC2(C)C(C(=O)CO)CCC12 (centres undefined),"inconclusive: 25.9 µM [falling, partial curve]",–
CCOC(=O)/C(=C/c1ccc(OC(F)F)cc1)C1=Nn2c(nnc2-c2ccc(Cl)cc2)SC1,"inconclusive: 29.1 µM [falling, single point]",–
C=C(c1ccccc1O)n1ccnc1,–,inactive: -9.02%
Cc1n[nH]c(=O)c2c(NC(=O)CSc3nc4ccccc4c(=O)n3CCCOC(C)C)oc(C)c12,"inconclusive: 5.17 µM [falling, partial curve, poor fit]",–
Cc1cc(S(=O)(=O)Nc2cc3c(cc2N2CCOCC2)n(C)c(=O)c(=O)n3C)ccc1F,–,inactive: -17.5%
CCCCC(CC)Cn1c(N)c(C#N)c2nc3ccccc3nc21 (centres undefined),"inconclusive: 25.9 µM [falling, single point]",–
O=S(=O)(CC(CN1CCCCC1)N1CCCCC1)c1ccc2ccccc2c1 (centres undefined),"inconclusive: 4.11 µM [falling, full curve]",–
CC1SC(=NC(=O)C(C)N2C(=O)c3ccccc3C2=O)NC1=O (centres undefined),"inconclusive: 20.6 µM [activator, partial curve, poor fit]",–
O=C(Cc1ccccc1)Nc1sc2c(c1C(=O)Nc1cccc(Cl)c1)CCCC2,–,inactive: 0.239%
CCCSc1nc2sc3c(c2c(=O)[nH]1)CC(C)CC3 (centres undefined),"inconclusive: 25.9 µM [activator, single point]",–
O=C(NCC1CCCO1)C1CCC(N2C(=O)c3ccccc3C2=O)CC1 (centres undefined),"inconclusive: 2.06 µM [falling, full curve, poor fit]",–
CCn1c(SCC(=O)NNC(=O)c2ccc(OC)cc2)nnc1C(C)C,"inconclusive: 2.06 µM [activator, partial curve, poor fit]",–
Cc1cccc(C(=O)Nc2ccc(CC(=O)O)cc2)c1,"inconclusive: 29.1 µM [falling, single point]",–
CC(=O)Nc1nc(COc2ccccc2)cs1,"inconclusive: 5.17 µM [activator, full curve]",–
COc1ccc2[nH]c(=O)c(CN(CCO)S(=O)(=O)c3ccc(C)cc3)cc2c1,–,inactive: 20.6%

# — PubChem BioAssay AID504444 (National Center for Advancing Translational Sciences (NCATS), 2011)
